Each structure is given as a SMILES string. The list shows a part of the results. The main result of the screen is listed elsewhere. These columns were measured beside it and carry no call. The list favours compounds with an active or inconclusive main result. Words in brackets tell the shape of the fitted curve; partial curves, single points and poor fits give uncertain potencies.

The assay is described as follows: qHTS Assay for Lipid Storage Modulators in Drosophila S3 Cells.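 On cell number change: cells counted by Cell Tracker Red CMTPX staining in the red channel.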 Particulars: BODIPY lipid droplet fluorescence, 18-24 h; for cell number change: measured here: cell count max response, cells fed with added oleic acid. The gist of the method:
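Laser-scanning cytometry quantifies lipid droplet accumulation (500–530 nm total intensity; droplet/cell object ratio) in oleic acid-fed (400 uM added) Drosophila S3 cells treated with a concentration series. 20 uM Triacsin C defined 100% inhibition.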
(In general: In qHTS, concentration-response curves come from the screen itself.)

[1] abbreviates: measured here: lipid fluorescence (Fed channel) AC50, cells fed with added oleic acid.
The mark [2] stands for this setting: measured here: cell number channel AC50, cells fed with added oleic acid.

Regarding `COc1ccccc1CNC(=O)CN1CCN(c2ccc(C(C)=O)cc2)CC1`, the cell number change came to 27.8%.
Regarding `Cc1ccccc1-c1nc(S(=O)(=O)c2ccc(Br)cc2)c(NCc2cccnc2)o1`, the cell number change came to 9%. For the same compound, the AC50 (as a rule, the midpoint of the concentration-response curve, whichever way the signal moves) under setting [1] is 2.91 µM [rising, partial curve].
As for `O=C(CN1CCN(S(=O)(=O)c2ccc(Br)cc2)CC1)Nc1ccc(F)cc1F`, the AC50 under setting [1] was 0.58 µM [falling, single point].
For the compound `CCCOc1ccc(/C=C/C(=O)OCC(=O)N(C)c2c(N)n(Cc3ccccc3)c(=O)[nH]c2=O)cc1OCC`, the cell number change was -46.2%. Under setting [2], the AC50 was 18.4 µM [falling, partial curve, poor fit]. Moreover, under setting [1], the AC50 is 0.116 µM [rising, full curve, poor fit].
Regarding `CCCOc1ncnc2c1sc1nc3c(cc12)COC(C)(C)C3`, the cell number change was 20%. The AC50 under setting [1] is 16.4 µM [rising, partial curve, poor fit].
In the case of `CC(C)(C)c1ccc(OCC(O)CSc2ncn[nH]2)cc1` (stereo not given), the cell number change amounted to 105%. The AC50 under setting [1] was 2.31 µM [falling, partial curve].
Take `O=C(NC1CCCCC1)N1CCCC(c2nc(-c3ccc(S(=O)(=O)N4CCCC4)cc3)no2)C1` (stereo not given): the cell number change is 3.45%. Also, the concentration at half-maximal activity (AC50) under setting [2] was 0.82 µM [rising, single point]. Further, the half-maximal activity concentration (AC50) under setting [1] is 20.6 µM [falling, single point].
Turning to `CC(=O)c1cccc(NC(=O)c2ccc(C)c(S(=O)(=O)N3CCOCC3)c2)c1`, the cell number change is -6.67%. Besides, under setting [1], the AC50 is 6.51 µM [rising, single point].
Regarding `O=C(Nc1ccccc1)C12CC3CC(C1)CC(n1cnc([N+](=O)[O-])n1)(C3)C2`, the cell number change was -9.21%.
On to `O=C(Nc1ccc(Cl)c(S(=O)(=O)N2CCOCC2)c1)c1ccc(OCC2CCCO2)cc1` (stereo not given), for which the cell number change stood at 13%. Also, under setting [1], the AC50 was 0.00461 µM [rising, full curve, poor fit].
With `CCOC(=O)C1=C(O)/C(=C/c2ccc(OCC(=O)O)c(OC)c2)SC1=Nc1ccc(OC)cc1`, the cell number change amounted to 5.23%.
As to `CCOC(=O)C1CCN(CCC(=O)Nc2ccccc2Cl)CC1`, the cell number change stood at 24.1%. The AC50 under setting [1] was 16.4 µM [rising, single point].
On to `COc1cccc(CNC(=O)C2CCCN(S(=O)(=O)N3CC(C)CC(C)C3)C2)c1` (stereo not given), for which the cell number change turned out to be 17.7%. Moreover, the AC50 under setting [1] was 0.651 µM [rising, single point].
Consider `COc1ccc(OC)c(CN2CCC(N3CCC(C(=O)NC4CC4)CC3)CC2)c1`, for which the cell number change was -18.1%.
With `Nc1nnc(Cc2ccc(Cl)cc2Cl)s1`, the cell number change came out at 4.92%. Besides, under setting [1], the AC50 was 0.731 µM [falling, single point].
Turning to `COc1ccc(NS(=O)(=O)c2ccc(C)c(NC(=O)C3CCCO3)c2)cc1` (stereo not given), the cell number change was determined as 19.3%. For the same compound, the AC50 under setting [1] is 6.51 µM [falling, single point].
On to `COc1ccc(/C=N/NC(=O)C2C(=O)NCC2c2ccccc2)c(OC)c1` (stereo not given), for which the cell number change is 1.38%. For the same compound, under setting [1], the AC50 is 6.51 µM [rising, partial curve].
Turning to `COc1ccc(-n2nnnc2CNC(=O)c2ccc(S(=O)(=O)N3CCOCC3)cc2)cc1`, the cell number change was -26.3%. Further, the half-maximal activity concentration (AC50) under setting [1] was 23.1 µM [falling, single point].
Turning to `CCCCCCn1nc(C(=O)OCC(=O)NC2CCS(=O)(=O)C2)c2ccccc2c1=O` (stereo not given), the cell number change was 17.9%. Further, the concentration at half-maximal activity (AC50) under setting [1] is 0.146 µM [rising, full curve, poor fit].
As for `C=CCN1C(=O)C(Cc2ccc(OC)cc2)SC1=Nc1ccc(C(=O)O)cc1` (stereo not given), the cell number change was -11%.
Take `Cc1ccc(N=Cc2c(O)n(-c3cc(Cl)ccc3N3CCOCC3)c(=O)c3ccccc23)cc1C`: the cell number change came to 44.6%. Also, the AC50 under setting [2] is 14.6 µM [rising, partial curve, poor fit].
For `CC(C)c1ccc(C2(C)NC(=O)N(CC(=O)NCC3COc4ccccc4O3)C2=O)cc1` (stereo not given), the cell number change came to 6.53%. Besides, the AC50 under setting [1] is 0.291 µM [rising, full curve, poor fit].
As to `O=C(Cn1nnc(-c2ccccc2)n1)NCc1ccccc1`, the cell number change was -1.56%.
Turning to `Cn1nccc1NC(=O)NC(=O)c1c(Cl)cccc1Cl`, the cell number change is -0.679%.
As for `Cc1ccc(C)c(N2CCN(C(=O)c3ccc4c(c3)c(C)c(C)n4C)CC2)c1`, the cell number change stood at 13.1%. Also, under setting [1], the AC50 was 29.1 µM [rising, single point].
As for `CCOC(=O)c1csc(NC(=O)COc2ccc(Cl)cc2Cl)n1`, the cell number change was 35%. The AC50 under setting [2] was 23.1 µM [rising, single point].
`Cc1ccc(S(=O)(=O)n2nc(-c3cccnc3)nc2N)cc1`: the cell number change was 11.5%.
Same read-out and setting: then `CCOC(=O)c1oc2ccccc2c1NC(=O)CN1CCN(C)CC1`, with 2.18%.
Consider `Cn1cccc1C(=O)NC(=O)CSc1nnc(C2CC2)n1-c1ccccc1`, for which the half-maximal activity concentration (AC50) under setting [2] was 1.64 µM [rising, partial curve, poor fit].
`S=C(Nc1ccc(Cl)cc1)c1nc2ccccc2[nH]1`: the cell number change is 2.73%. Further, the half-maximal activity concentration (AC50) under setting [1] is 14.6 µM [falling, single point].
As for `COc1ccc(C(=O)NCc2nnc(SCC(=O)N3CCC(C)CC3)o2)cc1`, the cell number change came to 2.44%. The AC50 under setting [1] is 0.731 µM [falling, single point].
Regarding `CC(C)C[C@H](NC(=O)c1nc[nH]c1C(=O)N1CCNCC1)C(=O)OC(C)(C)C`, the cell number change is 23.2%.
Take `Cc1ccc(/C=C/C(=O)O)cc1S(=O)(=O)Nc1ccccc1C(=O)O`: the cell number change was determined as 15%. The concentration at half-maximal activity (AC50) under setting [1] was 0.146 µM [rising, single point].
With `Cc1ccc(C(=O)Nc2cccc(NC(=O)CN3CCCCC3)c2)cc1`, the cell number change turned out to be 7.33%. Besides, the half-maximal activity concentration (AC50) under setting [1] is 6.51 µM [rising, partial curve].
In the case of `CCc1ccccc1NC(=O)CNC(=O)CNC(=O)C1CCCCC1`, the cell number change was found to be 6.6%. Also, under setting [1], the AC50 is 0.82 µM [falling, single point].
Regarding `COc1ccc(C2N(c3ccc(Cl)cc3)C(=O)C3CCCN32)cc1` (stereo not given), the cell number change came out at 102%. Also, the half-maximal activity concentration (AC50) under setting [2] was 16.4 µM [rising, single point]. Also, the AC50 under setting [1] is 29.1 µM [rising, partial curve].
Turning to `Cc1c(C(C)(C(=O)O)c2c(C)n(C)c3ccccc23)c2ccccc2n1C`, the half-maximal activity concentration (AC50) under setting [1] is 1.3 µM [rising, full curve, poor fit].
Consider `C=C(C)COc1ccc(-c2nc(N)ncc2Oc2ccccc2OCC)c(O)c1`, for which the cell number change is 85.3%. Under setting [2], the AC50 was 4.11 µM [rising, full curve]. Besides, under setting [1], the half-maximal activity concentration (AC50) is 3.26 µM [rising, full curve].
`CCOC(=O)N1CCN(C(=O)c2cccc(F)c2)CC1`: the cell number change was found to be 2.81%. Under setting [1], the AC50 was 0.00461 µM [falling, full curve, poor fit].
Regarding `CN1CCN(C(=O)c2ccc(NS(=O)(=O)c3cccc([N+](=O)[O-])c3)cc2)CC1`, the cell number change amounted to 8.5%.

The record behind these values is PubChem BioAssay AID2685 (National Center for Advancing Translational Sciences (NCATS), 2010).
